Earlier results in PMC6438731, “Extrasynaptic δ‐GABAA receptors are high‐affinity muscimol receptors” (Journal of Neurochemistry, 2019).

Test system: δ‐GABARs
Conditions: read-out: GABA EC50, 'typically', no reference given; cited from earlier work

NCCCC(=O)O [GABA, gamma‐aminobutyric acid]
EC50: 300 to 1000 nM
